{
  "sequences": {"note": "Protein sequences, listed by entry. Tags and fused reporters are not part of them. Lines headed by an entry give the natural chain unless they say otherwise; changes in a name come on top.", "UniProt Q9BT73": "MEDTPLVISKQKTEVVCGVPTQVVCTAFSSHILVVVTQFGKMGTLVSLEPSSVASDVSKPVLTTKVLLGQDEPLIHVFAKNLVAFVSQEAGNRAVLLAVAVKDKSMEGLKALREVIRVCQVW", "UniProt Q9HD47": "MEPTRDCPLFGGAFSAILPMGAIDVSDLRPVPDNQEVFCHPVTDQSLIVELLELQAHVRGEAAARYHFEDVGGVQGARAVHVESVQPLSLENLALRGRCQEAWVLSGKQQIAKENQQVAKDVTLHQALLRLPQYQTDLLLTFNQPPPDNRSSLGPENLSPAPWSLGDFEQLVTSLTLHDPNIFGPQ", "UniProt Q99460, whole entry": "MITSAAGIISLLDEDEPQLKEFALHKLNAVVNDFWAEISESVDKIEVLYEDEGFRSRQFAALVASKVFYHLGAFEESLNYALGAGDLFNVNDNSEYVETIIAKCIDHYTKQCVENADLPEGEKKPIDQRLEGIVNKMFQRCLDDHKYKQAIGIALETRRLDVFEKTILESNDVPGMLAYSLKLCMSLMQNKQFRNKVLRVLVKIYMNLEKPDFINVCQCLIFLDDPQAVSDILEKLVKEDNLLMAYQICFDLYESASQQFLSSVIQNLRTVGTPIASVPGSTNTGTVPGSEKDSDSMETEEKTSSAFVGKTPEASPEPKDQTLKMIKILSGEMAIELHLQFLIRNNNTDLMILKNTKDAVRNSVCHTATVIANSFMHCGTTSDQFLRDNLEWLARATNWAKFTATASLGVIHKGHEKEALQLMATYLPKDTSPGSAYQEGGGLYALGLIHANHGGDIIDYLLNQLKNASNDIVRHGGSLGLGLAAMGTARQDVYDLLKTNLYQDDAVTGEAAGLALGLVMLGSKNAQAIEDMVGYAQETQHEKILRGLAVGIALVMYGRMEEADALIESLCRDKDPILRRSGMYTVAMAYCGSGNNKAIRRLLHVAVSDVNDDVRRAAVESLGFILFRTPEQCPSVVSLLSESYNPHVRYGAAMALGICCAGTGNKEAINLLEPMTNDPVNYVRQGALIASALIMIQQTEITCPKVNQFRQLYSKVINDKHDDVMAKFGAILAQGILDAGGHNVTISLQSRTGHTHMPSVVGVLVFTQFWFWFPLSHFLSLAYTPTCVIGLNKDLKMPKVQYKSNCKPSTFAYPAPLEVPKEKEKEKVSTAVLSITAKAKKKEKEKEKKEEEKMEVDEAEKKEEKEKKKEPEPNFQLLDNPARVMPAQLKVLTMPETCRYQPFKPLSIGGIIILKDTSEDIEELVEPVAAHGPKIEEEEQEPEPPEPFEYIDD", "UniProt Q13637": "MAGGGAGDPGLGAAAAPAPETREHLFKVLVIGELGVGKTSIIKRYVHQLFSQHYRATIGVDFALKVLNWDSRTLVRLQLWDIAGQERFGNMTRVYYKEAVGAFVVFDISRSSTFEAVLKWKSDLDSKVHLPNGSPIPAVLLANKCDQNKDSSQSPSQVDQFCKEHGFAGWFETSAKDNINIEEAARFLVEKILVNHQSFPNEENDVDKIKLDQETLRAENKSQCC", "UniProt Q9NS91, whole entry": "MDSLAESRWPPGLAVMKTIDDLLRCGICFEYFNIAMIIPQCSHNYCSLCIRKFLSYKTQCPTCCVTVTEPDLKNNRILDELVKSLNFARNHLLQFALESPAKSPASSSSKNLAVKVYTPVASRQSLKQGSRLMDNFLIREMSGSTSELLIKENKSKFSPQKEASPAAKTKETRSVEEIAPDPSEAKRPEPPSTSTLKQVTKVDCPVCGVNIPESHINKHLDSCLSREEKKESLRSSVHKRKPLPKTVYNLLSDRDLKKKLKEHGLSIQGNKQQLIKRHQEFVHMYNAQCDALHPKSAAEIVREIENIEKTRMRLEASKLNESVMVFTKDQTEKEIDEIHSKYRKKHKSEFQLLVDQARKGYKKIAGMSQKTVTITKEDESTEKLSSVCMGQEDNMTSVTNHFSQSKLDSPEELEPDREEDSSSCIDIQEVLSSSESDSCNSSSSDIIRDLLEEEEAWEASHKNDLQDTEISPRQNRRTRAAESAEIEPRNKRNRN", "UniProt P10586, whole entry": "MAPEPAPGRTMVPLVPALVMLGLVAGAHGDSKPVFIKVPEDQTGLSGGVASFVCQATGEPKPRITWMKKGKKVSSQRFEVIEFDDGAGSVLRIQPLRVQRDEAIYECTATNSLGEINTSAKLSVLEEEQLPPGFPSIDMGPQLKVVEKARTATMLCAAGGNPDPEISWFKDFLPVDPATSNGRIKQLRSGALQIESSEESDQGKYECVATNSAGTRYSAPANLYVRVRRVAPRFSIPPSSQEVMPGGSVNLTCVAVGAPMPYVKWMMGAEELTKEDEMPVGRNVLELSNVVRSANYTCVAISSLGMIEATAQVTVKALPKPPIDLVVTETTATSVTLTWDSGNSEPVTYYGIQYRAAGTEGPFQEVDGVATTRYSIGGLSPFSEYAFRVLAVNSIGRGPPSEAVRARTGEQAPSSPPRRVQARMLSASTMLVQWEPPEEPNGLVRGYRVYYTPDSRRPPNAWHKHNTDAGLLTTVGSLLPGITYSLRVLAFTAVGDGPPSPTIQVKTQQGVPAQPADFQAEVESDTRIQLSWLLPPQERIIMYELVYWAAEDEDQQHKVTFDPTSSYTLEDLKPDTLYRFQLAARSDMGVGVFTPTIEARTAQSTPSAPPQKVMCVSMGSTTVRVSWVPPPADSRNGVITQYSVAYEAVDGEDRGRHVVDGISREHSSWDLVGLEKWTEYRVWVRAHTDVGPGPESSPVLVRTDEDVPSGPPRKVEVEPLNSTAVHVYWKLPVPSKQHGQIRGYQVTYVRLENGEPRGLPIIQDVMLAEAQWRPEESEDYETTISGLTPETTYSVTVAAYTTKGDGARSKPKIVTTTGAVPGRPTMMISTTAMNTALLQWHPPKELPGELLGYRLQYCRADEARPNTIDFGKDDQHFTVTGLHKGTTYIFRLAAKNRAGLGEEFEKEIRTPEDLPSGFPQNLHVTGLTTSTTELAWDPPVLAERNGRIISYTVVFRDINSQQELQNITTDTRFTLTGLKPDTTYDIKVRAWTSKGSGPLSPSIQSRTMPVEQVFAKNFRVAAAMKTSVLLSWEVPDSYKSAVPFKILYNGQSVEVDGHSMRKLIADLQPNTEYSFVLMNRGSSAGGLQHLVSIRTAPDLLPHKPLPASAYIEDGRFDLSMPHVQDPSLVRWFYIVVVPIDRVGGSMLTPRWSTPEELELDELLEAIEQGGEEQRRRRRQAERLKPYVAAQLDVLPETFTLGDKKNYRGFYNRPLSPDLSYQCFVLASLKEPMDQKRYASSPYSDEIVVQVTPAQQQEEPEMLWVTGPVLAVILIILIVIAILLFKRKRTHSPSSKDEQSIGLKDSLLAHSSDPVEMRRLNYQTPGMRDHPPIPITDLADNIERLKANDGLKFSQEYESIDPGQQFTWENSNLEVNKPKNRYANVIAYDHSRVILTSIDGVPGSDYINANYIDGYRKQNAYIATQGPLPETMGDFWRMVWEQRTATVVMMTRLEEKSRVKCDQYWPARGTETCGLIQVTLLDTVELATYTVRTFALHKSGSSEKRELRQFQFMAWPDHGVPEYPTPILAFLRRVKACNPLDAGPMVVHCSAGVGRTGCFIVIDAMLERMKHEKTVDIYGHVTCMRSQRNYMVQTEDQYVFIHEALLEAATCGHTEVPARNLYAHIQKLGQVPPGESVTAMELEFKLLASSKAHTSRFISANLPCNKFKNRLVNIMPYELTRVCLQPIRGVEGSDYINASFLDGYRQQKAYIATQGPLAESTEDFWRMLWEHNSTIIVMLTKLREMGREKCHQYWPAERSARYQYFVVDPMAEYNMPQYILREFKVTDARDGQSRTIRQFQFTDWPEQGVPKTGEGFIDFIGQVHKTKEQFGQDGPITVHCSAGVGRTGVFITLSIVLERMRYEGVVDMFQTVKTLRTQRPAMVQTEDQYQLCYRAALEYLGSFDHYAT", "UniProt Q5T8P6": "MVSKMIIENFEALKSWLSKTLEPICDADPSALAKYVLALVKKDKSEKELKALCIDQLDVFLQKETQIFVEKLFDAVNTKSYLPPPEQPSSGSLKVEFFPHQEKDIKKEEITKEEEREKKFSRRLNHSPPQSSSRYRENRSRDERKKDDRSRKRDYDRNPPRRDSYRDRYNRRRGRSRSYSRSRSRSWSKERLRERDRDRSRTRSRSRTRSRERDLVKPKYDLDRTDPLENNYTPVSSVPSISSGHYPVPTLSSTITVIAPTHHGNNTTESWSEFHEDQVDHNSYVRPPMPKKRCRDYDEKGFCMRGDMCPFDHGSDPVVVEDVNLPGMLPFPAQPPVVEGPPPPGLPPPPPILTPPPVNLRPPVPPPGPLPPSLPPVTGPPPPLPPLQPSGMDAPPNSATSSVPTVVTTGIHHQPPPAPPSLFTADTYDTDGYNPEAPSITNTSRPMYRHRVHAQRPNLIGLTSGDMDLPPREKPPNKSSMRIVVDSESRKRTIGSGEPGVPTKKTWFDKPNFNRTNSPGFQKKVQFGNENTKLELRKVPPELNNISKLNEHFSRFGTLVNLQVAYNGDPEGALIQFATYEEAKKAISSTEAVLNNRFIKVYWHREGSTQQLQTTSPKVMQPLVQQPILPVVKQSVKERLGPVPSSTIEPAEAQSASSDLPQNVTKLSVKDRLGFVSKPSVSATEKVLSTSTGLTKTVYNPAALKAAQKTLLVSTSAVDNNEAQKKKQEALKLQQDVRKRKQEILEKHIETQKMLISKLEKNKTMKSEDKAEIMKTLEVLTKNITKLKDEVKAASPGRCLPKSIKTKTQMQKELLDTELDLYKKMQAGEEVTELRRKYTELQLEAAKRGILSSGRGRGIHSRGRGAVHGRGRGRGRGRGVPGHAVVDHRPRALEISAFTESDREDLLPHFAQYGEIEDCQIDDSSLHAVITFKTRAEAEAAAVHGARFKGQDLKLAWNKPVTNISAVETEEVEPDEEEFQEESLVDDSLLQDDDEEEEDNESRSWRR", "UniProt O75832": "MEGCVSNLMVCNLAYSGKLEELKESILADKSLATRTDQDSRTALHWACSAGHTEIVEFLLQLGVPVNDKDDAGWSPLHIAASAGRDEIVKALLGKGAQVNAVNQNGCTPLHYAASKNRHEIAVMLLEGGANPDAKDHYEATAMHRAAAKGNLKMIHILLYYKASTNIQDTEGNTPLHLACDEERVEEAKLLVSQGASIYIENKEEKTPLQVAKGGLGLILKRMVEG", "UniProt Q08999": "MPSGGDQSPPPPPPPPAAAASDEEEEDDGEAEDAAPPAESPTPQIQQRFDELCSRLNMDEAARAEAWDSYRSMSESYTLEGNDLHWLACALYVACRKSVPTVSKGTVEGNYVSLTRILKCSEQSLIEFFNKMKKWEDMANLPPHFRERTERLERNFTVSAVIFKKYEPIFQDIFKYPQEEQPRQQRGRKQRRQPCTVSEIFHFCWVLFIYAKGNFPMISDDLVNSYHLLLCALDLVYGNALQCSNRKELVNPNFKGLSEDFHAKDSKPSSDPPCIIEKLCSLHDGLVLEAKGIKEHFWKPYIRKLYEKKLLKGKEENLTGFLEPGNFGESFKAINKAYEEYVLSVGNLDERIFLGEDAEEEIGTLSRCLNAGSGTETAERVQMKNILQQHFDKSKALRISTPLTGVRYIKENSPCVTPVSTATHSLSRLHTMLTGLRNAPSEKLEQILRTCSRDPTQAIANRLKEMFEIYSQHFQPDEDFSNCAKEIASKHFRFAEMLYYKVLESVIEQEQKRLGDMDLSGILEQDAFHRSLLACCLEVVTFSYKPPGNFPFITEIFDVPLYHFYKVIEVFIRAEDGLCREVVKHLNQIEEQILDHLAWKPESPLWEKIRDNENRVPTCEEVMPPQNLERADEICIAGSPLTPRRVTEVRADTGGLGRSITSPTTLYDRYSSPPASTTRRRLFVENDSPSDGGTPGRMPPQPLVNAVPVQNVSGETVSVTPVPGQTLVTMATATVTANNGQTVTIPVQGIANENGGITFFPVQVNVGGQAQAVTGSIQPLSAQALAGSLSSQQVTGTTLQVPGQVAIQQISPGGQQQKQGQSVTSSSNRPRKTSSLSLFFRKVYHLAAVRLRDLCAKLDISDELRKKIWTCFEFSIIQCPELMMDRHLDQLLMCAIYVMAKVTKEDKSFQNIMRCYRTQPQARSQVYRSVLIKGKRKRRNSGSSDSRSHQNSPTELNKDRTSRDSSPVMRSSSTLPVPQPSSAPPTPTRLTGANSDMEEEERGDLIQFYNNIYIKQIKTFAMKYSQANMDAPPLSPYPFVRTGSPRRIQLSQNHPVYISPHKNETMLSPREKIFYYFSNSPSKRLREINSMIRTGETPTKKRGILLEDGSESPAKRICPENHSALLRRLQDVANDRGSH", "UniProt Q9UKM9": "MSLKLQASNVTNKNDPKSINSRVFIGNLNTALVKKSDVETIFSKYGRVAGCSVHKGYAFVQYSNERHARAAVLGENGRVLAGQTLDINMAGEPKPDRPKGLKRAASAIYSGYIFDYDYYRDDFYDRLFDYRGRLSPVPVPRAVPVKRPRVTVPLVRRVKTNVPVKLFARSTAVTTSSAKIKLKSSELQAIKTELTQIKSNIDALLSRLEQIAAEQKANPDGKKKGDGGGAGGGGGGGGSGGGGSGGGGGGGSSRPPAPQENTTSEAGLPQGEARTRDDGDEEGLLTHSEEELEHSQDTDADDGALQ"},
  "source": "the supplement of paper PMC7666118",
  "note": "The other results are listed elsewhere or left out.",
  "data": [
    {"compound": "COc1ccc(Cn2ccc3ccc(C(=O)NO)cc32)cc1", "test": "dose-dependent thermal stabilisation call (2D-TPP, DLPTP, 10% FDR) (binary (1 = stabilised)); higher = stabilised by the compound", "conditions": "system: HL-60 intact cells; concentration range 0.04-10 µM", "values": [
      {"target": "PSMB2 (UniProt P49721)", "dose-dependent thermal stabilisation call": "inactive: 0"},
      {"target": "PSMG3 (UniProt Q9BT73)", "dose-dependent thermal stabilisation call": "inactive: 0"},
      {"target": "RAB20 (UniProt Q9NX57)", "dose-dependent thermal stabilisation call": "inactive: 0"},
      {"target": "RANGRF (UniProt Q9HD47)", "dose-dependent thermal stabilisation call": "inactive: 0"},
      {"target": "PSMD1 (UniProt Q99460)", "dose-dependent thermal stabilisation call": "inactive: 0"},
      {"target": "RAB32 (UniProt Q13637)", "dose-dependent thermal stabilisation call": "inactive: 0"},
      {"target": "PWP2 (UniProt Q15269)", "dose-dependent thermal stabilisation call": "inactive: 0"},
      {"target": "RABGAP1 (UniProt Q9Y3P9)", "dose-dependent thermal stabilisation call": "inactive: 0"},
      {"target": "PTPN2 (UniProt P17706)", "dose-dependent thermal stabilisation call": "inactive: 0"},
      {"target": "RAD18 (UniProt Q9NS91)", "dose-dependent thermal stabilisation call": "inactive: 0"},
      {"target": "RAD50 (UniProt Q92878)", "dose-dependent thermal stabilisation call": "inactive: 0"},
      {"target": "PTPRF (UniProt P10586)", "dose-dependent thermal stabilisation call": "inactive: 0"},
      {"target": "RBM26 (UniProt Q5T8P6)", "dose-dependent thermal stabilisation call": "inactive: 0"},
      {"target": "RAF1 (UniProt P04049)", "dose-dependent thermal stabilisation call": "inactive: 0"},
      {"target": "PSMD10 (UniProt O75832)", "dose-dependent thermal stabilisation call": "inactive: 0"},
      {"target": "RBM12B (UniProt Q8IXT5)", "dose-dependent thermal stabilisation call": "inactive: 0"},
      {"target": "RAD54L2 (UniProt Q9Y4B4)", "dose-dependent thermal stabilisation call": "inactive: 0"},
      {"target": "PRUNE (UniProt Q86TP1)", "dose-dependent thermal stabilisation call": "inactive: 0"},
      {"target": "PSMC2 (UniProt P35998)", "dose-dependent thermal stabilisation call": "inactive: 0"},
      {"target": "RBL2 (UniProt Q08999)", "dose-dependent thermal stabilisation call": "inactive: 0"},
      {"target": "RALY (UniProt Q9UKM9)", "dose-dependent thermal stabilisation call": "inactive: 0"},
      {"target": "RBM10", "dose-dependent thermal stabilisation call": "inactive: 0"},
      {"target": "PUS10 (UniProt Q3MIT2)", "dose-dependent thermal stabilisation call": "inactive: 0"},
      {"target": "PTPN7 (UniProt P35236)", "dose-dependent thermal stabilisation call": "inactive: 0"},
      {"target": "PSAP (UniProt P07602)", "dose-dependent thermal stabilisation call": "inactive: 0"},
      {"target": "RAB23 (UniProt Q9ULC3)", "dose-dependent thermal stabilisation call": "inactive: 0"},
      {"target": "RAB31 (UniProt Q13636)", "dose-dependent thermal stabilisation call": "inactive: 0"}
    ]}
  ]
}
